Data: US20220175811A1, “STABLE FORMULATIONS OF CYCLIC DINUCLEOTIDE STING AGONIST COMPOUNDS AND METHODS OF USE THEREOF” (Merck Sharp & Dohme Corp., priority 2019, published 2022)
At least one read-out could not be matched to a standard name with certainty.

Test: Forced stress screen (AIBN, peroxide, 0.1N NaOH)
Assay type: physicochemical
Method: 0.05 mg/mL stock solutions of Compound A were prepared by adding […] of Compound A to a 50 mL volumetric flask and diluted to volume with either 50/50 water/methanol (stock solution A), or 50/50 water/acetonitrile (stock solution B).
An azobisisobutyronitrile (AIBN) stress solution was prepared by dissolving 7.77 mg of AIBN in 10 mL of stock solution A in an amber volumetric flask and sonicating to dissolve. The AIBN control solution was prepared by dissolving 8.48 mg of AIBN in 10 mL of 50/50 methanol/water in an amber volumetric flask. Both solutions were placed in an oven at 40° C. for 24 hours.
A peroxide stress solution was prepared by adding 1.0 mL of 3% hydrogen peroxide to 9.0 mL of stock solution A in a volumetric flask. An aliquot of the solution was placed into an amber vial kept at room temperature, and another aliquot was stored at 5° C. for 24 hours. The peroxide control solution was prepared by adding 1.0 mL of 3% hydrogen peroxide to 9.0 mL 50/50 methanol/water in an amber volumetric flask. This solution was kept at room temperature for 24 hours.
A 0.1N NaOH stress solution was prepared by adding 1.0 mL of 1N sodium hydroxide to 9.0 mL of stock solution B in an amber volumetric flask. One sample was kept at room temperature, and the identical sample was placed in an oven at 60° C. for 24 hours. A 0.1N NaOH control solution was prepared by adding 1.0 mL of 1N sodium hydroxide to 9.0 mL of 50/50 acetonitrile/water in an amber volumetric flask.
No major degradation was observed under AIBN or 0.1N NaOH base stress. […] The percent of Compound A was calculated based on the area count of active peak in the control samples compared to stress samples.

Compound: Nc1nc2c(ncn2[C@@H]2O[C@@H]3CO[P@@](=O)(S)O[C@H]4[C@H](F)[C@H](n5cnc6c(N)ncnc65)O[C@@H]4CO[P@@](=O)(S)O[C@@H]2[C@@H]3F)c(=O)[nH]1 (single isomer, unassigned) [Compound A]
- % Recovery of Compound A (0.1 N NaOH base stress, 24h/RT): 100.0%
- % Recovery of Compound A (AIBN stress, 40° C. for 24 hours): 97.7%
- % Recovery of Compound A (Peroxide stress at 5° C., 24 hours): 82.4%
- % Recovery of Compound A (Peroxide stress at RT, 24 hours): 44.6%
